Measurements reported in PubChem BioAssay AID1259308 (NCATS, 2017).

- Aim: 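Candidate targets for better recombinant protein yield in mammalian cells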 (primary screen)
- Cell system: human HEK293 embryonic kidney cells stably expressing firefly luciferase (HEK-CMV-Luc2-Hygro)
- Reagents: single siRNA against human genes, 0.8 pmol siRNA per well
- Time to read-out: 72 h
- Measured: 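Luciferase light (ONE-Glo) measured on one replicate plate set and viability (CellTiter-Glo) on the other, scaled to a negative control siRNA, with robust z-scores and luciferase per cell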
- Scale: total luciferase, z-score: higher = more reporter protein produced
- Hit rule: 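An siRNA counts as active if its total luciferase robust z-score exceeds 3; genes with two or more such siRNAs out of three were retested with fresh siRNAs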
- Meaning of the calls: active = raised luciferase; inactive = no rise
The deposit covers about 59,000 reagents; below is an unselected part. In the full data, about 1,510 (2.6%) were called active. 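Calls use total luciferase alone and ignore viability, so some active siRNAs may act by altering cell number.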 Reagents against one gene are numbered here. Not all columns of the deposit are shown.

For OASL #1, how do the results read?
total luciferase, z-score: -0.194; call: inactive

With OASL #2, what does the deposit list?
total luciferase, z-score: 1.8; call: inactive

With OASL #3, how do the results read?
total luciferase, z-score: -0.267; call: inactive

Which result is listed for FAM174C #1?
total luciferase, z-score: -0.751; call: inactive

For FAM174C #2, how do the results read?
total luciferase, z-score: -1.98; call: inactive

What did the screen give for FAM174C #3?
total luciferase, z-score: -1.48; call: inactive

With CDR2 #1, what was measured?
total luciferase, z-score: 2.36; call: inactive

How did the screen score CDR2 #2?
total luciferase, z-score: -1.26; call: inactive

What did the screen give for CDR2 #3?
total luciferase, z-score: 0.168; call: inactive

Already shown: entries from further up.
OASL #3: total luciferase, z-score = -0.267; call = inactive
FAM174C #1: total luciferase, z-score = -0.751; call = inactive

More results follow.
How did the screen score LINC02510 #1?
total luciferase, z-score: 4.27; call: active

What did the screen give for LINC02510 #2?
total luciferase, z-score: -2.48; call: inactive

Which result is listed for LINC02510 #3?
total luciferase, z-score: -1.41; call: inactive

What did the screen give for SLC22A12 #1?
total luciferase, z-score: -0.479; call: inactive

How did the screen score SLC22A12 #2?
total luciferase, z-score: 1.02; call: inactive

With SLC22A12 #3, what was measured?
total luciferase, z-score: 0.256; call: inactive

What is on record for SLC25A18 #1?
total luciferase, z-score: -1.42; call: inactive

What is on record for SLC25A18 #2?
total luciferase, z-score: 5.89; call: active

With SLC25A18 #3, what was measured?
total luciferase, z-score: 0.199; call: inactive

With IL9 #1, what was measured?
total luciferase, z-score: -0.0966; call: inactive

With IL9 #2, what was measured?
total luciferase, z-score: -3; call: inactive

For IL9 #3, how do the results read?
total luciferase, z-score: -1.51; call: inactive
